Measurements as given in the supplement of paper PMC10849652.
The other results are listed elsewhere or left out.

Amino acid sequences for entries named in this document (tags omitted). A change or cut given only in a name is not applied to a line headed by its entry.
UniProt Q9BTM9: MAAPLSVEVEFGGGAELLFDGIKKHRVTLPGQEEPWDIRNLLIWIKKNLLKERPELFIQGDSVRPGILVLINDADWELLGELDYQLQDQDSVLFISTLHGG
UniProt P09327: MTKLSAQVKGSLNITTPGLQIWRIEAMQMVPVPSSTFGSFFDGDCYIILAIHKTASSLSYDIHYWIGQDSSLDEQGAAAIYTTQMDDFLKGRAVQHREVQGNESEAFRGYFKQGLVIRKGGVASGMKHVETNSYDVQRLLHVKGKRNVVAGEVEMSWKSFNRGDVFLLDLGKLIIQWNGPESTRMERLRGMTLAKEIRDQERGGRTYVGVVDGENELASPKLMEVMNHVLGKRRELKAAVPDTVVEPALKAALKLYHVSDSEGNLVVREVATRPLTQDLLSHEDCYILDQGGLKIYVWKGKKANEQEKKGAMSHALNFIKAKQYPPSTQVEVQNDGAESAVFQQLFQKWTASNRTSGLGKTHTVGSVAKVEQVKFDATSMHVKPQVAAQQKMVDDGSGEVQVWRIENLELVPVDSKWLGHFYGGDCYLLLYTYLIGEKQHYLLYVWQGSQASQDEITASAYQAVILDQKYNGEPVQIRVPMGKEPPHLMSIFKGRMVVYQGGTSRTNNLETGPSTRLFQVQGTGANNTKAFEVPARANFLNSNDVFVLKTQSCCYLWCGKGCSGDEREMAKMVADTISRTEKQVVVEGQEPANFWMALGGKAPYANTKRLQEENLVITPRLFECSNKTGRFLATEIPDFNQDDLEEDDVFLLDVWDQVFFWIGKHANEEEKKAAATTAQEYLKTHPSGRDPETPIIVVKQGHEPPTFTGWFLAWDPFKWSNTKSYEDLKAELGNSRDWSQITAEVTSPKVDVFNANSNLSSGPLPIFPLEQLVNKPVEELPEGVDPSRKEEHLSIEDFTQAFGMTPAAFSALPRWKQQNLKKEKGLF
UniProt Q6UW78: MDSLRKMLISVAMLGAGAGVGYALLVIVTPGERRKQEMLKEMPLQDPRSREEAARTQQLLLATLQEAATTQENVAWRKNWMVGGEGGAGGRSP
UniProt P52735: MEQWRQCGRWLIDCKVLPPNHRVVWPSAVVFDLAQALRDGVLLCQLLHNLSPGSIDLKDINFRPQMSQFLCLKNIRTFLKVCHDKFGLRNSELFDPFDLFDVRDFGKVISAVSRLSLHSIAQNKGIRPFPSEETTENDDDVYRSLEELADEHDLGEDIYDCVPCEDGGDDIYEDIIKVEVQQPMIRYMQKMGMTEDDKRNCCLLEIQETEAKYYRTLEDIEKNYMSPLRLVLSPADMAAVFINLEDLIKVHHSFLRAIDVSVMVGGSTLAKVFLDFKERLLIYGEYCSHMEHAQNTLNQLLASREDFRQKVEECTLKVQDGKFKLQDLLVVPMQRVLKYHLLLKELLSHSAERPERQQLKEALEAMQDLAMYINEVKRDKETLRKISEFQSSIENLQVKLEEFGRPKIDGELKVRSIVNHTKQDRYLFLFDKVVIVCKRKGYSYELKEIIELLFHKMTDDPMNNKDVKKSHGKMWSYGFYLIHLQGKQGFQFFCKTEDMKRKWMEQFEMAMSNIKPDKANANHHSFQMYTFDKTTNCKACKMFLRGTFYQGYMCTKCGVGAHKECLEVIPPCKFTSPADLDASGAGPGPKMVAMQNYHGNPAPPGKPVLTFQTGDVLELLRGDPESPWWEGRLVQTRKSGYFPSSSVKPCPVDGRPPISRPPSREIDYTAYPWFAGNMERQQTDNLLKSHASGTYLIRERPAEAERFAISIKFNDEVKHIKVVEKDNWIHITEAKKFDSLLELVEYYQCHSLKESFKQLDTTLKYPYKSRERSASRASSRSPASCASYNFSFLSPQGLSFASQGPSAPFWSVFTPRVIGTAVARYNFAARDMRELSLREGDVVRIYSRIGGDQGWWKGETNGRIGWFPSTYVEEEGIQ
UniProt Q9BZM5, whole entry, looked up: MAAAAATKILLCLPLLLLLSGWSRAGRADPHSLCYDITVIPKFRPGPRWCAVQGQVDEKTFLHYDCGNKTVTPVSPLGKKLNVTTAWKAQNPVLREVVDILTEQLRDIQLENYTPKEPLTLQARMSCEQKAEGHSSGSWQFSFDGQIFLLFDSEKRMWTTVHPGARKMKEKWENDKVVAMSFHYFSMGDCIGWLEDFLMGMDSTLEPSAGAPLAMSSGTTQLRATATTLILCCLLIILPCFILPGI
UniProt O14795: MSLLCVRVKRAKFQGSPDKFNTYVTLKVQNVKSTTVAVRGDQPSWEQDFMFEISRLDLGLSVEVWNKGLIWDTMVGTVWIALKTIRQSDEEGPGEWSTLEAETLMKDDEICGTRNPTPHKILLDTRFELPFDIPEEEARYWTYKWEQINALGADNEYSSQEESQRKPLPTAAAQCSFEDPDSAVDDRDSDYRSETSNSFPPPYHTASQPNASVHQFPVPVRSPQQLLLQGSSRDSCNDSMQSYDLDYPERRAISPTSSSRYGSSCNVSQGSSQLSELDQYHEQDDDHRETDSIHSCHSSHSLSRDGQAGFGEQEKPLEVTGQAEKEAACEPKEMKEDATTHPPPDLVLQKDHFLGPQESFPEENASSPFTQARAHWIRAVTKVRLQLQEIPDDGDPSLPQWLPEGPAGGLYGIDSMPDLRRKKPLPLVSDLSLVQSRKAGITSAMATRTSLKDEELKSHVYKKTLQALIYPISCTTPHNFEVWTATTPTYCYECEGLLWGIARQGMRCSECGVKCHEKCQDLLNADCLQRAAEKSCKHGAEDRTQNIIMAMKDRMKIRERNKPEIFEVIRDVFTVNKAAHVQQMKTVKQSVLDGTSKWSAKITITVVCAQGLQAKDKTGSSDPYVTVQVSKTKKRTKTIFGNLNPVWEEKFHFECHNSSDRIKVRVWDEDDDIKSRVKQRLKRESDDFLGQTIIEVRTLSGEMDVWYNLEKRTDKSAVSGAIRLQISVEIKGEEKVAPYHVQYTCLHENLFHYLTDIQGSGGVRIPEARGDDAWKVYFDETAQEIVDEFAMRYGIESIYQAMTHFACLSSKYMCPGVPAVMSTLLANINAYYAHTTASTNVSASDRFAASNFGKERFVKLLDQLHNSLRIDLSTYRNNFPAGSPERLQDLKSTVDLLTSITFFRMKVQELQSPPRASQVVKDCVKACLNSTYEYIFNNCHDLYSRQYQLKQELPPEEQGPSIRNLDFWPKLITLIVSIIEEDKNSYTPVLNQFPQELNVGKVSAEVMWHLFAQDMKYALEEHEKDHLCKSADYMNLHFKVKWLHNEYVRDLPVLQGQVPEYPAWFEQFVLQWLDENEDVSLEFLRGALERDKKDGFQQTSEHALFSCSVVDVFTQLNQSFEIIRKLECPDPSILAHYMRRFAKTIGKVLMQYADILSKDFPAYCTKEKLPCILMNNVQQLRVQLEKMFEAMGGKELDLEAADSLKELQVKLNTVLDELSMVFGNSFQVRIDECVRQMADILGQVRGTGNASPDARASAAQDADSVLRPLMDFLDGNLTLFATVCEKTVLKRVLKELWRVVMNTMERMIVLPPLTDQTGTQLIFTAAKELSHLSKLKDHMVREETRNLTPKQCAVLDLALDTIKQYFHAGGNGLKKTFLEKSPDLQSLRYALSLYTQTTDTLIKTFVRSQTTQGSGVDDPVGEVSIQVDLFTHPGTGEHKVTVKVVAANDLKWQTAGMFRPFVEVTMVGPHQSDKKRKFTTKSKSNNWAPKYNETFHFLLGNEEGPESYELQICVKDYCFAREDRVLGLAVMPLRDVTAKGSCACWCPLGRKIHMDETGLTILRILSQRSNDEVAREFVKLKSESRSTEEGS

Experiments:
Assay in all cases: log2 fold change, soluble protein after heating vs DMSO (PISA); higher = thermal stabilisation; K562 lysate, 10 uM; active = over 0.2 and 3.5 SD of the protein, either way, in both replicates (recomputed)
vemurafenib = compound: CCCS(=O)(=O)Nc1ccc(F)c(C(=O)c2c[nH]c3ncc(-c4ccc(Cl)cc4)cc23)c1F [vemurafenib]
Summary of the method: (§1)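 Thermal stability, expressed as log-two fold change relative to solvent controls, is given from duplicates. Crude K562 extract in PBS pH 7.4 with 1 mM MgCl2, at 1 mg/mL protein, was treated with 10 μM compound for 30 min and heated in aliquots for 3 min across 48°C-58°C. After pooling, adjustment to 0.5% NP-40 at 4°C and centrifugation at 21,000xg for 90 min, supernatant protein was measured by TMTpro 16plex LC-MS/MS with channel sums equalised.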

[1] = compound: CCCS(=O)(=O)Nc1ccc(F)c(C(=O)c2c[nH]c3ncc(Cl)cc23)c1F
Summary of the method: as §1

barasertib = compound: CCN(CCCOc1ccc2c(Nc3cc(CC(=O)Nc4cccc(F)c4)[nH]n3)ncnc2c1)CCOP(=O)(O)O [barasertib]
Summary of the method: as §1

[2] = compound: CC[C@@H]1C(=O)N(C)c2cnc(Nc3ccc(C(=O)NC4CCN(C)CC4)cc3OC)nc2N1C1CCCC1
Summary of the method: as §1

volasertib = compound: CC[C@@H]1C(=O)N(C)c2cnc(Nc3ccc(C(=O)N[C@H]4CC[C@H](N5CCN(CC6CC6)CC5)CC4)cc3OC)nc2N1C(C)C [volasertib]
Summary of the method: as §1

[3] = compound: CCn1c(C(=O)N(C2CC2)C2CC2)cc2c3c(ncn3C)c(Nc3cc(C)n(C)n3)nc21
Summary of the method: as §1

[4] = compound: CCn1cc(-c2ccnc3[nH]c(-c4cccc(CN(C)C)c4)cc23)c(-c2ccc(NC(=O)N(C)C)cc2)n1
Summary of the method: as §1

[5] = compound: CN1CCC(CNc2ccc3ncc(-c4cccc(OC(F)(F)F)c4)n3n2)CC1
Summary of the method: as §1

saracatinib = compound: CN1CCN(CCOc2cc(OC3CCOCC3)c3c(Nc4c(Cl)ccc5c4OCO5)ncnc3c2)CC1 [saracatinib]
Summary of the method: as §1

alvocidib = compound: CN1CC[C@H](c2c(O)cc(O)c3c(=O)cc(-c4ccccc4Cl)oc23)[C@H](O)C1 [alvocidib]
Summary of the method: as §1

Tubastatin A = compound: CN1CCc2c(c3ccccc3n2Cc2ccc(C(=O)NO)cc2)C1 [Tubastatin A]
Summary of the method: as §1

[6] = compound: CNC(=O)C1=CC=CC=C1NC2=NC(=NC=C2Cl)NC3=C(C=C(C=C3)N4CCOCC4)OC
Summary of the method: as §1

defactinib = compound: CNC(=O)c1ccc(Nc2ncc(C(F)(F)F)c(NCc3nccnc3N(C)S(C)(=O)=O)n2)cc1 [defactinib]
Summary of the method: as §1

[7] = compound: CNc1nc(-c2ccc3c(N)n[nH]c3c2)cc(N2C[C@@H](C(=O)NC3CCCCC3)CC[C@H]2C)n1
Summary of the method: as §1

encorafenib = compound: COC(=O)N[C@@H](C)CNc1nccc(-c2cn(C(C)C)nc2-c2cc(Cl)cc(NS(C)(=O)=O)c2F)n1 [encorafenib]
Summary of the method: as §1

[8] = compound: COC(=O)[C@H](CCSC)NC(=O)C1=C(C=C(C=C1)NC[C@H](CS)N)C2=CC=CC=C2
Summary of the method: as §1

alisertib = compound: COc1cc(Nc2ncc3c(n2)-c2ccc(Cl)cc2C(c2c(F)cccc2OC)=NC3)ccc1C(=O)O [alisertib]
Summary of the method: as §1

[9] = compound: COc1cc2nc(-c3cc(F)ccc3O)nc(N[C@@H]3CNC[C@H]3C(C)(C)O)c2cc1OC
Summary of the method: as §1

gefitinib = compound: COc1cc2ncnc(Nc3ccc(F)c(Cl)c3)c2cc1OCCCN1CCOCC1 [gefitinib]
Summary of the method: as §1

sotrastaurin = compound: CN1CCN(c2nc(C3=C(c4c[nH]c5ccccc45)C(=O)NC3=O)c3ccccc3n2)CC1 [sotrastaurin]
Summary of the method: as §1

Measured: log2 fold change

URM1 isoform 2 (UniProt Q9BTM9)
inactive: vemurafenib 0.011 | [1] -0.009 | barasertib -0.122 | [2] -0.024 | volasertib 0.007 | [3] -0.062 | [4] -0.034 | [5] -0.041 | saracatinib 0.12 | alvocidib 0.081 | Tubastatin A 0.062 | [6] 0.033 | defactinib 0.121 | [7] -0.212 | encorafenib -0.091 | [8] -0.299 | alisertib -0.03 | [9] 0.041 | gefitinib 0.007

VIL1 (UniProt P09327)
inactive: vemurafenib 0.036 | [1] 0.14 | barasertib 0.177 | [2] -0.032 | volasertib -0.188 | [3] 0.052 | [4] 0.04 | [5] 0.06 | saracatinib -0.087 | sotrastaurin -0.011 | alvocidib 0.077 | Tubastatin A -0.058 | [6] 0.15 | defactinib -0.087 | [7] 0.184 | encorafenib 0.029 | [8] 0.151 | [9] 0.071

UQCC3 (UniProt Q6UW78)
inactive: vemurafenib -0.158 | [1] 0 | barasertib 0.248 | [2] 0.025 | volasertib -0.196 | [3] 0.21 | [4] 0.228 | [5] -0.182 | saracatinib -0.06 | alvocidib -0.037 | Tubastatin A 0.219 | [6] 0.108 | defactinib -0.039 | [7] -0.041 | encorafenib -0.05 | [8] 0.036 | [9] 0.135

VAV2 (UniProt P52735)
inactive: vemurafenib 0.042 | [1] 0.116 | volasertib -0.117 | saracatinib 0.058 | defactinib -0.089 | [7] 0.179 | [9] 0.137

VEZT (UniProt F8W8C2)
inactive: vemurafenib -0.116 | [1] -0.282 | barasertib 0.078 | [2] -0.063 | volasertib 0.06 | [3] 0.157 | [4] 0.078 | [5] 0.004 | sotrastaurin -0.316 | alvocidib 0.002 | Tubastatin A -0.123 | [6] 0.001 | defactinib 0.116 | encorafenib 0.065 | [8] 0.098 | [9] -0.06

ULBP2 (UniProt Q9BZM5)
inactive: vemurafenib -0.098 | [1] 0.03 | barasertib -0.037 | [2] 0.012 | volasertib 0.076 | [3] 0.042 | [4] 0.151 | [5] 0.045 | saracatinib -0.091 | sotrastaurin 0.097 | alvocidib -0.188 | Tubastatin A 0.013 | [6] -0.003 | defactinib -0.028 | [7] -0.033 | encorafenib 0.032 | [8] -0.037 | [9] 0.038

UNC13B isoform 2 (UniProt O14795)
inactive: vemurafenib 0.143 | [1] -0.034 | [2] 0.027 | volasertib 0.071 | [3] 0.014 | saracatinib 0.002 | sotrastaurin 0.052 | Tubastatin A -0.033 | [6] 0.1 | defactinib -0.002 | [7] -0.238 | encorafenib 0.265 | [8] 0.082 | alisertib -0.018 | [9] 0.043 | gefitinib 0.011
